According to the supplement of paper PMC6078165:
The reference is the same well before dosing, and untreated signal decays as well.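 Fibroblast labels denote human fibroblasts, mainly primary ones from uterus (C12385, HUF), lung (H6013), bone (Hs27A), adrenal (HADF) and skin (WS1), plus mammary HMF and breast cancer-associated Hs343T. Cancer cells are basal-like or mesenchymal-like triple-negative breast cancer lines. A hit is a response shift exceeding 3x replicate standard deviation. The tissue of the other fibroblasts is not given here.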

System: Hs578T
Test: relative JC-1 red fluorescence (viability) vs pre-drug, coculture with fibroblast (fraction); higher = more viable cancer cells
Settings: 10 µM
Protocol: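 JC-1 labelled TNBC cells cocultured 1:1 (1,500 cells each) with CellTrace Violet stained primary or stromal fibroblasts in 384-well plates in FluoroBrite medium, treated with one of 42 anticancer drugs at 0.1, 1, 10 or 100 uM. JC-1 red fluorescence (mitochondrial integrity in cancer cells only) was read by plate reader every 8 h for 72 h. Values are normalised to each well's pre-drug value. The stock of one drug was tenfold lower, so its dose labels may be too high.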

CCc1c2c(nc3ccc(OC(=O)N4CCC(N5CCCCC5)CC4)cc13)-c1cc3c(c(=O)n1C2)COC(=O)[C@]3(O)CC [Irinotecan]
Settings	relative JC-1 red fluorescence
8 h	0.876
16 h	0.7942
24 h	0.765
32 h	0.743
40 h	0.705
48 h	0.672
56 h	0.656
64 h	0.628
72 h	0.626

relative JC-1 red fluorescence
Settings	8 h	16 h	24 h	32 h	40 h	48 h	56 h	64 h	72 h
coculture fibroblast: C12385	0.845	0.7259	0.743	0.66	0.608	0.58	0.549	0.537	0.53
coculture fibroblast: H6013	0.846	0.81	0.776	0.767	0.749	0.748	0.732	0.725	0.707
coculture fibroblast: H6019	0.796	0.718	0.688	0.59	0.557	0.53	0.502	0.494	0.476
coculture fibroblast: H6076	0.919	0.85578	0.805	0.785	0.736	0.738	0.699	0.692	0.686
coculture fibroblast: H6231	0.9222	0.8432	0.797	0.765	0.699	0.68	0.629	0.595	0.584
coculture fibroblast: HADF	0.87	0.801	0.743	0.692	0.647	0.616	0.575	0.553	0.521
coculture fibroblast: HCFa	0.85	0.845	0.809	0.774	0.726	0.702	0.671	0.665	0.64
coculture fibroblast: HCPF	0.943	0.866	0.794	0.745	0.692	0.6532	0.621	0.575	0.545
coculture fibroblast: HHSteC	0.884	0.851	0.807	0.778	0.752	0.724	0.698	0.67	0.637
coculture fibroblast: HMF	0.867	0.805	0.7608	0.748	0.696	0.672	0.636	0.62	0.595
coculture fibroblast: HPFa	0.901	0.819	0.7648	0.707	0.668	0.63	0.581	0.559	0.518
coculture fibroblast: HUF	0.90381	0.7744	0.8152	0.714	0.6694	0.6533	0.6214	0.626	0.62
coculture fibroblast: Hs27A	0.9001	0.8483	0.8162	0.7894	0.742	0.718	0.6727	0.663	0.612
coculture fibroblast: Hs343T	0.884	0.804	0.776	0.782	0.728	0.715	0.674	0.664	0.655
coculture fibroblast: WS1	0.807	0.761	0.755	0.665	0.604	0.591	0.553	0.547	0.532
